Experimental data taken from patent publication US9029332B2, “Cross-linked peptides and proteins, methods of making same, and uses thereof” (The Research Foundation for The State University of New York, priority 2010, dated 2015).
Some results were stated once for a whole list of compounds, not compound by compound. Square brackets hold non-standard residues; d marks the D form. Peptide text beside a SMILES is read from it.

Assay: Circular dichroism, percent helicity
Format: physicochemical
Conditions: PDI analogs, 12-mer, 50 μM in 20% ACN/H2O, [θ]222
Experimental: FIG. 12. […] The peptides were dissolved in 20% ACN/H2O for a final concentration of 50 μM.
Circular Dichroism Study. […] The spectra were recorded in the wavelength range of 190-250 nm and averaged over 3 scans with a resolution of 0.5 nm, a bandwidth of 1.0 nm and a response time of 4 s. The sensitivity and the speed of the spectrometer were set to 100 mdeg and 50 nm/min, respectively. All peptides were dissolved in 20% acetonitrile/H2O to reach final concentration of 50 μM.

SMILES	percent helicity
CC(=O)N[C@@H](CC(C)C)C(=O)N[C@H](C(=O)N[C@@H](Cc1ccccc1)C(=O)N[C@H](CS)C(=O)N[C@@H](Cc1c[nH]cn1)C(=O)N[C@@H](Cc1ccc(O)cc1)C(=O)N[C@@H](Cc1c[nH]c2ccccc12)C(=O)N[C@@H](C)C(=O)N[C@@H](CCC(N)=O)C(=O)N[C@@H](CC(C)C)C(=O)N[C@@H](CS)C(=O)N[C@@H](CO)C(N)=O)[C@@H](C)O [Peptide 3] (Ac-LTF[dC]HYWAQLCS-NH2; C-terminus assumed)	11-13%
CC(=O)N[C@@H](CC(C)C)C(=O)N[C@H](C(=O)N[C@@H](Cc1ccccc1)C(=O)N[C@@H](CS)C(=O)N[C@@H](Cc1c[nH]cn1)C(=O)N[C@@H](Cc1ccc(O)cc1)C(=O)N[C@@H](Cc1c[nH]c2ccccc12)C(=O)N[C@@H](C)C(=O)N[C@@H](CCC(N)=O)C(=O)N[C@@H](CC(C)C)C(=O)N[C@@H](CS)C(=O)N[C@@H](CO)C(N)=O)[C@@H](C)O [Peptide 1] (Ac-LTFCHYWAQLCS-NH2)	11-13%
